# Reference: the supplement of paper PMC10403144
# The other results are listed elsewhere or left out.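 The calls were made as follows: active = mitochondrial OCR inhibition above 30% at 1 uM; inactive = 30% or less.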 Most values come without repeats; read them as rough.
# Tested on: Toxoplasma gondii RH tachyzoites
# Experiment: inhibition of mitochondrial O2 consumption rate (% inhibition (relative to pre-injection OCR and atovaquone/antimycin A control)); higher = stronger ETC inhibition
# Conditions: 1 µM; injection port (sequential injection order): B
row,SMILES,inhibition of mitochondrial O2 consumption rate
1,O=C(NC1CC1)c1ccc(N2CCOc3ccc(Cl)cc32)s1,inactive: 2.37
2,Cc1cc(Nc2ccncc2)n2nc(C)c(-c3ccccc3Cl)c2n1,inactive: -5.44
3,O=C([C@@H](c1ccc(Cl)cc1)c1cccnc1)N1CCN(c2ccc(C(F)(F)F)cc2)CC1,inactive: -1.47
4,N=C(N)c1ccc(OCCCCCOc2ccc(C(=N)N)cc2)cc1,inactive: -0.737
5,c1ccc(-c2nc(NC3CCCCC3)cc(C3CC3)n2)nc1,inactive: 25.1
6,NCCCC(N)(C(=O)O)C(F)F (stereo not given),inactive: 13.5
7,O=[N+]([O-])c1cn2c(n1)OC[C@@H](OCc1ccc(OC(F)(F)F)cc1)C2,inactive: -18
8,O=C(Cn1ccnc1[N+](=O)[O-])NCc1ccccc1,inactive: -1.94
9,CC(=O)NC[C@@H]1CN(c2ccc(N3CCOCC3)c(F)c2)C(=O)O1,inactive: -8.17
10,COC(=O)Nc1nc2cc(C(=O)c3ccccc3)ccc2[nH]1,inactive: -6.56
11,COc1cccc(NC(=O)c2c(NC(=O)c3cccnc3)sc3c2CCC3)c1,inactive: -20.3
12,O=C(NCCN1CCCC1)c1cc(NCCN2CCOCC2)nc2ccc(Cl)cc12,inactive: -12.2
13,O=C(C1CCCCC1)N1CC(=O)N2CCc3ccccc3C2C1 (stereo not given),inactive: 5.42
14,COc1ccc(-c2onc(C(F)(F)F)c2-c2ccc(Cl)cc2)c(O)c1,inactive: -5.47
15,Cc1[nH]c2cc(F)cc(F)c2c(=O)c1-c1ccc(Oc2ccc(OC(F)(F)F)cc2)cc1,active: 77.9
16,Nc1ncc(-c2ccc(C(F)(F)F)nc2)cc1-c1ccc(C(F)(F)F)nc1,inactive: -5.64

# 3 entries from above, ordered by SMILES length, ascending.
row,SMILES,inhibition of mitochondrial O2 consumption rate
9,CC(=O)NC[C@@H]1CN(c2ccc(N3CCOCC3)c(F)c2)C(=O)O1,inactive: -8.17
15,Cc1[nH]c2cc(F)cc(F)c2c(=O)c1-c1ccc(Oc2ccc(OC(F)(F)F)cc2)cc1,active: 77.9
3,O=C([C@@H](c1ccc(Cl)cc1)c1cccnc1)N1CCN(c2ccc(C(F)(F)F)cc2)CC1,inactive: -1.47

# Same assay, conditions: 1 µM; injection port (sequential injection order): C
row,SMILES,inhibition of mitochondrial O2 consumption rate
1,COc1ccc(-c2nnc3ccc(-c4cccc(C(C)C)c4)cn23)cc1OC,inactive: -8.29
2,CCc1ccc([C@@H]2C[C@H](C(F)(F)F)n3ncc(C(=O)NCc4ccc(OC)cc4)c3N2)cc1,inactive: -18.4
3,CCNC(=O)C(C)Nc1nc(-c2cccnc2)nc2sc(C)c(C)c12 (stereo not given),inactive: -5.78
4,Cc1cc(C)nc(-n2nc(C)cc2Nc2ccccc2)n1,inactive: -1.15
5,c1ccc(C[C@@H]2CN(c3nccc(Oc4ccc(-n5ccnc5)cc4)n3)CCN2)cc1,inactive: -13.8
6,Cn1c(=O)c2c(S(C)(=O)=O)snc2n(C)c1=O,inactive: -38.4
7,CCc1ccc(C(NCc2nc(N)nc(N(C)C)n2)C(C)C)cc1 (stereo not given),inactive: -21
8,COc1ccc(OC)c(NCc2ccc3nc(N)nc(N)c3c2Cl)c1,inactive: -5.85
9,COc1cc(C2=NCCN2)cc2cc(-c3ccc(C4=NCCN4)cc3)oc12,inactive: -14.1
